PubChem BioAssay AID1259308, NCATS | 2017

Aim: 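Genes whose loss raises luciferase production in HEK293 cells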 (primary screen)
Cell system: human HEK293 embryonic kidney cells stably expressing firefly luciferase (HEK-CMV-Luc2-Hygro)
Reagents: single siRNA against human genes, 0.8 pmol siRNA per well
Timing: 72 h
Read-out: 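Luciferase light (ONE-Glo) measured on one replicate plate set and viability (CellTiter-Glo) on the other, scaled to a negative control siRNA, with robust z-scores and luciferase per cell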
Reading the numbers: total luciferase, z-score and total luciferase, % of control: higher = more reporter protein produced
Call rule: 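Active when the median/MAD z-score for overall luciferase is greater than 3; a gene was taken forward for validation with new siRNAs if at least two of its three siRNAs passed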
Calls: active = raised luciferase; inactive = no rise
The whole screen tested about 59,000 reagents; this is an unselected part. About 1,510 of all reagents (2.6%) count as active. 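Calls use total luciferase alone and ignore viability, so some active siRNAs may act by altering cell number.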 Unmarked entries are inactive. The numbers tell different reagents against one gene apart. Not all columns of the deposit are shown.

What did the screen give for TSTD2 (GeneID 158427) #1?
total luciferase, z-score: -0.349; total luciferase, % of control: 74.9

What is on record for TSTD2 (GeneID 158427) #2?
total luciferase, z-score: 1.58; total luciferase, % of control: 113

How did the screen score TSTD2 (GeneID 158427) #3?
total luciferase, z-score: -1.44; total luciferase, % of control: 53.3

For FOLR1 (GeneID 2348) #1, what was measured?
total luciferase, z-score: -0.45; total luciferase, % of control: 72.9

For FOLR1 (GeneID 2348) #2, how do the results read?
total luciferase, z-score: -2.28; total luciferase, % of control: 36.5

Which result is listed for FOLR1 (GeneID 2348) #3?
total luciferase, z-score: -1.92; total luciferase, % of control: 43.8

With TMSB15A (GeneID 11013) #1, what was measured?
total luciferase, z-score: -0.514; total luciferase, % of control: 71.7

How did the screen score TMSB15A (GeneID 11013) #2?
total luciferase, z-score: -0.499; total luciferase, % of control: 72

What is on record for TMSB15A (GeneID 11013) #3?
total luciferase, z-score: -0.208; total luciferase, % of control: 77.7

For TSR3 (GeneID 115939) #1, how do the results read?
total luciferase, z-score: -0.853; total luciferase, % of control: 64.9

What is on record for TSR3 (GeneID 115939) #2?
total luciferase, z-score: -0.09; total luciferase, % of control: 80.1

With TSR3 (GeneID 115939) #3, what was measured?
total luciferase, z-score: -0.09; total luciferase, % of control: 80.1

What is on record for XK (GeneID 7504) #1?
total luciferase, z-score: -0.346; total luciferase, % of control: 75

For XK (GeneID 7504) #2, what was measured?
total luciferase, z-score: -0.236; total luciferase, % of control: 77.2

With XK (GeneID 7504) #3, what was measured?
total luciferase, z-score: 0.223; total luciferase, % of control: 86.3

For SMC1A (GeneID 8243) #1, what was measured?
total luciferase, z-score: 0.998; total luciferase, % of control: 102

What is on record for SMC1A (GeneID 8243) #2?
total luciferase, z-score: 0.759; total luciferase, % of control: 97

For SMC1A (GeneID 8243) #3, what was measured?
total luciferase, z-score: -1.47; total luciferase, % of control: 52.6

With MDN1 (GeneID 23195) #1, how do the results read?
total luciferase, z-score: -0.329; total luciferase, % of control: 75.4

For MDN1 (GeneID 23195) #2, what was measured?
total luciferase, z-score: -0.968; total luciferase, % of control: 62.6

What is on record for MDN1 (GeneID 23195) #3?
total luciferase, z-score: -0.148; total luciferase, % of control: 78.9

Records listed so far whose gene name begins with M or m (3):
MDN1 (GeneID 23195) #1 — total luciferase, z-score: -0.329; total luciferase, % of control: 75.4
MDN1 (GeneID 23195) #2 — total luciferase, z-score: -0.968; total luciferase, % of control: 62.6
MDN1 (GeneID 23195) #3 — total luciferase, z-score: -0.148; total luciferase, % of control: 78.9

Additional results follow.
What did the screen give for BMPER (GeneID 168667) #1?
total luciferase, z-score: 0.289; total luciferase, % of control: 87.6

Which result is listed for BMPER (GeneID 168667) #2?
total luciferase, z-score: 0.372; total luciferase, % of control: 89.3

What did the screen give for BMPER (GeneID 168667) #3?
total luciferase, z-score: -2.36; total luciferase, % of control: 35

What is on record for FERMT1 (GeneID 55612) #1?
total luciferase, z-score: 8.06 (active); total luciferase, % of control: 242

What is on record for FERMT1 (GeneID 55612) #2?
total luciferase, z-score: -0.606; total luciferase, % of control: 69.8

How did the screen score FERMT1 (GeneID 55612) #3?
total luciferase, z-score: 0.304; total luciferase, % of control: 87.9

With ACTL6A (GeneID 86) #1, what was measured?
total luciferase, z-score: 2.45; total luciferase, % of control: 131

Which result is listed for ACTL6A (GeneID 86) #2?
total luciferase, z-score: 3.55 (active); total luciferase, % of control: 152

With ACTL6A (GeneID 86) #3, what does the deposit list?
total luciferase, z-score: 1.78; total luciferase, % of control: 117

With PLCXD2 (GeneID 257068) #1, what was measured?
total luciferase, z-score: -0.0759; total luciferase, % of control: 80.4

How did the screen score PLCXD2 (GeneID 257068) #2?
total luciferase, z-score: 0.542; total luciferase, % of control: 92.7

For PLCXD2 (GeneID 257068) #3, what was measured?
total luciferase, z-score: 0.0426; total luciferase, % of control: 82.7

With KRT32 (GeneID 3882) #1, what does the deposit list?
total luciferase, z-score: -1.88; total luciferase, % of control: 44.5

With KRT32 (GeneID 3882) #2, what was measured?
total luciferase, z-score: -1.25; total luciferase, % of control: 57.1

With KRT32 (GeneID 3882) #3, how do the results read?
total luciferase, z-score: -0.915; total luciferase, % of control: 63.7

What is on record for PLAC4 (GeneID 191585) #1?
total luciferase, z-score: 0.0497; total luciferase, % of control: 82.9

What is on record for PLAC4 (GeneID 191585) #2?
total luciferase, z-score: 0.156; total luciferase, % of control: 85

For PLAC4 (GeneID 191585) #3, what does the deposit list?
total luciferase, z-score: -0.217; total luciferase, % of control: 77.6

What is on record for MGLL (GeneID 11343) #1?
total luciferase, z-score: 1.2; total luciferase, % of control: 106

Which result is listed for MGLL (GeneID 11343) #2?
total luciferase, z-score: -0.671; total luciferase, % of control: 68.5

Which result is listed for MGLL (GeneID 11343) #3?
total luciferase, z-score: 0.782; total luciferase, % of control: 97.4
